Reference: US9464120B2, “Compositions for treatment of celiac disease” (ImmusanT, Inc., priority 2008, dated 2016)
Some entries share one result that the patent states for a list of compounds.

test system: gluten peptide-specific T cells in PBMC from HLA-DQ2+ celiac disease donors; test: IFNγ ELISpot of PBMC collected on day 6 after oral gluten challenge; type: cell-based, human; details: wheat, rye and barley second round libraries

Substance	number of donors in whom peptide was dominant (at least 70% of response of most active peptide in library)	proportion of donors in whom peptide was dominant
SEQ ID NO:132: second round gluten library peptide; sequence not printed in text (QPFPQPQQPFSW; B10)	at least 1 donor	more than 10%
SEQ ID NO:136: second round gluten library peptide; sequence not printed in text (PQQPFPQQPQPYPQQP; B12)	at least 1 donor	more than 10%
SEQ ID NO:169: second round gluten library peptide; sequence not printed in text (QPFPQPQQPIPQ; R01)	at least 1 donor	more than 10%
SEQ ID NO:170: second round gluten library peptide; sequence not printed in text (QPFPQPEQPIPQ; R01-E7)	at least 1 donor	more than 10%
SEQ ID NO:171: second round gluten library peptide; sequence not printed in text (QPFPQPQQPFPQ; R02)	at least 1 donor	more than 10%
SEQ ID NO:173: second round gluten library peptide; sequence not printed in text (QPFPQPQQPTPI; R03)	at least 1 donor	more than 10%
SEQ ID NO:174: second round gluten library peptide; sequence not printed in text (QPFPQPEQPTPI; R03-E7)	at least 1 donor	more than 10%
SEQ ID NO:177: second round gluten library peptide; sequence not printed in text (PAPIQPQQPFPQ; R05)	at least 1 donor	–
SEQ ID NO:178: second round gluten library peptide; sequence not printed in text (PAPIQPEQPFPQ; R05-E7)	at least 1 donor	–
SEQ ID NO:179: second round gluten library peptide; sequence not printed in text (PQQPFPQQPEQI; R06)	at least 1 donor	more than 10%
SEQ ID NO:180: second round gluten library peptide; sequence not printed in text (PQQPFPEQPEQI; R06-E7)	at least 1 donor	more than 10%
SEQ ID NO:183: second round gluten library peptide; sequence not printed in text (PQQPFPQQPQQI; R08)	at least 1 donor	more than 10%
SEQ ID NO:184: second round gluten library peptide; sequence not printed in text (PQQPFPEQPQQI; R08-E7)	at least 1 donor	more than 10%
SEQ ID NO:187: second round gluten library peptide; sequence not printed in text (PFPQQPEQIISQ; R10)	at least 1 donor	more than 10%
SEQ ID NO:188: second round gluten library peptide; sequence not printed in text (PFPQQPEQIISQ; R10-E7)	at least 1 donor	more than 10%
SEQ ID NO:189: secalin peptide whose fully deamidated capped variant is NPL004 (PFPQQPEQIIPQ; R11)	at least 1 donor	–
SEQ ID NO:191: second round gluten library peptide; sequence not printed in text (QPFPQPQQQLPL; R12)	at least 1 donor	more than 10%
SEQ ID NO:192: second round gluten library peptide; sequence not printed in text (QPFPQPEQQLPL; R12-E7)	at least 1 donor	more than 10%
SEQ ID NO:209: second round gluten library peptide; sequence not printed in text (LFPLPQQPFPQ; R22)	at least 1 donor	–
SEQ ID NO:210: second round gluten library peptide; sequence not printed in text (LFPLPEQPFPQ; R22-E7)	at least 1 donor	–
W02-E7: α-gliadin peptide including DQ2-α-I and DQ2-α-II, encompassed in QLQPFPQPELPYPQPQP (W02-E7)	at least 1 donor	more than 10%
